For one substance, binding results are on record in PMC8698834.

Protein sequences, listed by entry. Tags and fused reporters are not part of them.
UniProt Q04IN8: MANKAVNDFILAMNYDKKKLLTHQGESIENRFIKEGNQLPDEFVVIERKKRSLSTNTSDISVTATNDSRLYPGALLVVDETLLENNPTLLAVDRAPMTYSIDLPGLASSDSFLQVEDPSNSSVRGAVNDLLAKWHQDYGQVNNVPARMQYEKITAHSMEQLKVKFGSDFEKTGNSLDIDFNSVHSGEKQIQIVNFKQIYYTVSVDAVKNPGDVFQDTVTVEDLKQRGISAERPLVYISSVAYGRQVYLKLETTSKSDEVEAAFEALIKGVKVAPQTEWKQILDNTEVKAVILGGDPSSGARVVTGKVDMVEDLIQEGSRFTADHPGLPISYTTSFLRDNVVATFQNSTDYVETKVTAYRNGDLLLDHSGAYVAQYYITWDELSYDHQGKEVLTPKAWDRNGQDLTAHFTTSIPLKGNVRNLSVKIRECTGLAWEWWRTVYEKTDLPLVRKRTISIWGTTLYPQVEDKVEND

Results are given in words; binding and its absence hold for the method and conditions named. Some binding calls cover weakened binding; strength is not graded here.

The test has as its target recombinant pneumolysin (PLY) of Streptococcus pneumoniae (Streptococcus pneumoniae) (UniProt Q04IN8). Put plainly: SDS-resistant oligomers by SDS-PAGE and western blotting; rPLY 1 ug/mL in PBS, preincubated at 37 °C for 1 h with or without matcha supernatant (20-320 ug/mL) or catechins (0.1 or 1 mg/mL), then with 1% (v/v) sheep erythrocytes at 37 °C for 1 h; SDS sample buffer without beta-mercaptoethanol, 50 °C for 10 min; 7.5% SDS-PAGE; blot with anti-PLY clone PLY-4; oligomer on erythrocyte membranes; both purified. For orientation: A western blot detects proteins with antibodies after separation by electrophoresis.

Regarding “recombinant pneumolysin (PLY) of Streptococcus pneumoniae (from UniProt Q04IN8 1-471)”, the binding result was “binds”.
